This experiment addresses T1, Myocardin related transcription factor A (MRTF-A) (human) (UniProt Q969V6).
T1 sequence: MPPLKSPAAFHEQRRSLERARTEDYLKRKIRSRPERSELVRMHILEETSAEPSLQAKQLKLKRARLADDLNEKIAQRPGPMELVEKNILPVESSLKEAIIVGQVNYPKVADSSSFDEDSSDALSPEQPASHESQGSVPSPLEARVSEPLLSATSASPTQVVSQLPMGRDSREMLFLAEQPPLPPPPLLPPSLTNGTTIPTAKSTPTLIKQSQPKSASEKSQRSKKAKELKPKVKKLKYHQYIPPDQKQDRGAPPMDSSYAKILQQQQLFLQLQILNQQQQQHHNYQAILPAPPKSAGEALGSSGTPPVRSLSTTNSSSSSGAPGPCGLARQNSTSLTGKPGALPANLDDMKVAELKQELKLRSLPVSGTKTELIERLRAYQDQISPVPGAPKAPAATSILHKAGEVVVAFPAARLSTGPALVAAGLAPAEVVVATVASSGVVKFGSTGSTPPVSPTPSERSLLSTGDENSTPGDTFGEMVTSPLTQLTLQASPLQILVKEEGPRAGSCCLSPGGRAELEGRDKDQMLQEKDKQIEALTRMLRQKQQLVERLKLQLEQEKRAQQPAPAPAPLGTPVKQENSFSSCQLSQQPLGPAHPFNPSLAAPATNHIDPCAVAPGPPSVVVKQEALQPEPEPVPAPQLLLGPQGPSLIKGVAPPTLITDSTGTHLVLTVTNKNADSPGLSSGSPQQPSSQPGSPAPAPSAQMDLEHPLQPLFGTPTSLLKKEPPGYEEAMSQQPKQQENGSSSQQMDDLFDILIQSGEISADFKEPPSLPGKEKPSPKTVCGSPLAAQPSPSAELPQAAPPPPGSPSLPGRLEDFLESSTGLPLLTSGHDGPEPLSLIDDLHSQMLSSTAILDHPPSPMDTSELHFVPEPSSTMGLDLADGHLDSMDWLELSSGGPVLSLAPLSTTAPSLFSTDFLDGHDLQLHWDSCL
The experiment is described as follows: co-IP; MRTF-A antibody (Bethyl A302-202A) immobilised on AminoLink Plus Coupling Resin (Pierce co-IP kit); 1 mg pre-cleared lysate of hCASMCs overexpressing MRTF-A, overnight at 4°C; Control Resin column as negative control; eluates read by dot blot (RelA, RelB, MRTF-A) and western blot (RelA). On the technique in general: In western blotting, separated proteins are transferred to a membrane and probed.

Chains of the proteins cited; added tags and fusions are not shown.
UniProt Q04206: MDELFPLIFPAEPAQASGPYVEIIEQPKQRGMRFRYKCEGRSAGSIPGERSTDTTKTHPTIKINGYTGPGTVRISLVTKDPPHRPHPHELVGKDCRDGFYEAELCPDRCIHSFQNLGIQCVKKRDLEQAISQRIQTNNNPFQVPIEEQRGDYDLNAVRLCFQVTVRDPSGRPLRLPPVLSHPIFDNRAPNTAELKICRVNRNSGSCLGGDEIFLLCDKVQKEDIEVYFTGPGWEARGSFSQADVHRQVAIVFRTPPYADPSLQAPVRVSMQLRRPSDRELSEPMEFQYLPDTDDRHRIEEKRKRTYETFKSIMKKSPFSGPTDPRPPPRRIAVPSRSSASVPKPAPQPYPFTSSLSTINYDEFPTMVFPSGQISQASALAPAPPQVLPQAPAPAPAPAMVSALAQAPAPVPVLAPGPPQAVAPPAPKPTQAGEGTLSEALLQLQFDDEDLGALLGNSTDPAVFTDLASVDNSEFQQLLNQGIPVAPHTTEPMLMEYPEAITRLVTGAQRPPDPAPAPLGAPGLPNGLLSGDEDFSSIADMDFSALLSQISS

Results are given in words; binding and its absence hold for the method and conditions named. In cells and extracts the contact can be indirect. Some results given as binding are weak or reduced against the parent protein; the word gives no strength.

The values that follow come from paper PMC8521029.

As for RelA (from UniProt Q04206 1-551), the binding result is “binds”.

B1: RelB (protein, UniProt Q01201 1-579)
chain: MLRSGPASGPSVPTGRAMPSRRVARPPAAPELGALGSPDLSSLSLAVSRSTDELEIIDEYIKENGFGLDGGQPGPGEGLPRLVSRGAASLSTVTLGPVAPPATPPPWGCPLGRLVSPAPGPGPQPHLVITEQPKQRGMRFRYECEGRSAGSILGESSTEASKTLPAIELRDCGGLREVEVTACLVWKDWPHRVHPHSLVGKDCTDGICRVRLRPHVSPRHSFNNLGIQCVRKKEIEAAIERKIQLGIDPYNAGSLKNHQEVDMNVVRICFQASYRDQQGQMRRMDPVLSEPVYDKKSTNTSELRICRINKESGPCTGGEELYLLCDKVQKEDISVVFSRASWEGRADFSQADVHRQIAIVFKTPPYEDLEIVEPVTVNVFLQRLTDGVCSEPLPFTYLPRDHDSYGVDKKRKRGMPDVLGELNSSDPHGIESKRRKKKPAILDHFLPNHGSGPFLPPSALLPDPDFFSGTVSLPGLEPPGGPDLLDDGFAYDPTAPTLFTMLDLLPPAPPHASAVVCSGGAGAVVGETPGPEPLTLDSYQAPGPGDGGTASLVGSNMFPNHYREAAFGGGLLSPGPEAT
As for B1, the binding result is “binds”.
